Experimental data reported in US11498853B2, “Water with switchable ionic strength” (QUEEN'S UNIVERSITY AT KINGSTON, priority 2010, dated 2022).

Columns and labels:
[1] = Primary amines as switchable additives, THF/water; assay type: physicochemical; settings: 60° C., 60 minutes
[2] = Comparative solvent switching with amidine, primary and secondary amine/water systems; assay type: physicochemical
[3] = Settling of clay fines in switchable water; settings: kaolinite clay, 1 mM
[4] = 3:3:1 (v/v/v) H2O, amine, THF, 90 minutes at 50° C.

## NCCN [ethylenediamine]
[1]; 18:18:1
  recombination of phases on N2 bubbling: the two phases did not recombine

## CNCCO [2-(methylamino) ethanol]
[2]; [4]
  recombination of phases on N2 bubbling: did not recombine

## C1CCC2=NCCCN2CC1 [DBU, 1,8-diazabicyclo-[5.4.0]-undec-7-ene]
[2]
  recombination of phases on N2 bubbling: failed to cause the phases to recombine

## CN(C)CCCCN(C)C [TMDAB, N, N, N′, N′-tetramethyl-1,4-diaminobutane]
[3]; no gas treatment
  clay suspension behaviour: stable suspension
[3]; settled clay resuspended and treated with N2
  clay suspension behaviour: the suspension was stable
[3]; suspension treated with CO2 in presence of clay
  clay suspension behaviour: settling of the clay fines with a clean supernatant and a clear sediment line

## NCCO [ethanolamine]
[2]; [4]
  recombination of phases on N2 bubbling: did not recombine
[1]; 5:5:1
  recombination of phases on N2 bubbling: the two phases did not recombine
